Data published in publication PMC10825207.
These are yes or no findings as the source states them, for the method shown. In cells and extracts the contact can be indirect. Some results given as binding are weak or reduced against the parent protein; the word gives no strength.

Protein sequences, listed by entry. Tags and fused reporters are not part of them.
UniProt P06748: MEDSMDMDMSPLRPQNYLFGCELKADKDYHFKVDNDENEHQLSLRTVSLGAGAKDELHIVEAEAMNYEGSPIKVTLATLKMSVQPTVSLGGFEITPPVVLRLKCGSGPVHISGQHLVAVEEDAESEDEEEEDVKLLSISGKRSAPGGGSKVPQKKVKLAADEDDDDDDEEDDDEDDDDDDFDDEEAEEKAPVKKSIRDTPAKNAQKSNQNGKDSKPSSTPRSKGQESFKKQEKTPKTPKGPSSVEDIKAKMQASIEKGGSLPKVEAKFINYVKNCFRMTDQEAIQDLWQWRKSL
UniProt P46937: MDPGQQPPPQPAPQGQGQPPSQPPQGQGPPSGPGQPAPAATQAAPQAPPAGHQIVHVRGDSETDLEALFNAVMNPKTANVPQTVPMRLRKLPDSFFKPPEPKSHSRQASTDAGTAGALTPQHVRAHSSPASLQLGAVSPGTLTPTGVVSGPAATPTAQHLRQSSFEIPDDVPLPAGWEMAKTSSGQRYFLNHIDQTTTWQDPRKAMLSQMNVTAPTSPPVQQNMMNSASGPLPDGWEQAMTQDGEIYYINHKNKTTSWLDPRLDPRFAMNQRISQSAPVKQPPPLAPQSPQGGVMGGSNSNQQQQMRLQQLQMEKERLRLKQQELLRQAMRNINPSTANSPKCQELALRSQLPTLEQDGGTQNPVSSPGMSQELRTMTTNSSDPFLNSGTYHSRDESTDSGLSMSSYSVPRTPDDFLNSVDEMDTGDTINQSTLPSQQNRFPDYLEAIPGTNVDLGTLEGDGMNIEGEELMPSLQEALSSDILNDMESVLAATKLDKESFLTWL

What was measured:
[1] = target: NPM1 WT (in 293T cells) (UniProt P06748); assay: co-IP; CoIP of YAP1 and NPM1 (WT, Thr95D or Thr95A) from lysates of 293T cells
[2] = target: nucleophosmin1 (NPM1) (human (endogenous in A673 and other ES cell lines)) (UniProt P06748); assay: co-IP; endogenous proteins in ES cell lysates (50 mM Tris-HCl pH 7.4, 150 mM NaCl, 1 mM EDTA, 1% NP-40, 1 mM DTT); 1 mg lysate with AURKA/NPM1 antibodies overnight at 4 °C, beads, Western blot; IgG as negative control
[3] = target: T1, Aurora kinase A (AURKA) (human (endogenous in A673 and other ES cell lines)) (UniProt O14965); assay: as above
T1 sequence: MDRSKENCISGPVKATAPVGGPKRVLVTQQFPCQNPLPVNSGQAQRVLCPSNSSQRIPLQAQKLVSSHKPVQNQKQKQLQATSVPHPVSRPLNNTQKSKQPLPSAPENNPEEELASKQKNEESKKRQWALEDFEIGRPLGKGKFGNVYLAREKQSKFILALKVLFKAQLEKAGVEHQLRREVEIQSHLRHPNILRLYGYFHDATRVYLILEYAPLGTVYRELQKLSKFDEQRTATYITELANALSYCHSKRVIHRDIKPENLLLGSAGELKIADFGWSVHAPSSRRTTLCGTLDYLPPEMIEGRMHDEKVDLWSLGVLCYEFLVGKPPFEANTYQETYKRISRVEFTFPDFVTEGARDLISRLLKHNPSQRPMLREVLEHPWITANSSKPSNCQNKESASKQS

Substance: YAP1 (in 293T cells) (from UniProt P46937 1-504)
- binding [1]: binds

Substance: Yes1 associated transcriptional regulator (YAP1) (from UniProt P46937 1-504)
- binding [2]: binds

Substance: nucleophosmin1 (NPM1) (from UniProt P06748 1-294)
- binding [3]: binds
